Reference: PMC4389316, “C-terminal residues of skeletal muscle calsequestrin are essential for calcium binding and for skeletal ryanodine receptor inhibition” (Skeletal Muscle, 2015)
No constants are given. Whether binding was seen depends on the method and setting. In cells and extracts the contact can be indirect. Binding can be weak; no strength is given.

Sequences of proteins named here, by UniProt entry; tags and fusion partners are left off. A change or cut given only in a name is not applied to a line headed by its entry.
UniProt P07221: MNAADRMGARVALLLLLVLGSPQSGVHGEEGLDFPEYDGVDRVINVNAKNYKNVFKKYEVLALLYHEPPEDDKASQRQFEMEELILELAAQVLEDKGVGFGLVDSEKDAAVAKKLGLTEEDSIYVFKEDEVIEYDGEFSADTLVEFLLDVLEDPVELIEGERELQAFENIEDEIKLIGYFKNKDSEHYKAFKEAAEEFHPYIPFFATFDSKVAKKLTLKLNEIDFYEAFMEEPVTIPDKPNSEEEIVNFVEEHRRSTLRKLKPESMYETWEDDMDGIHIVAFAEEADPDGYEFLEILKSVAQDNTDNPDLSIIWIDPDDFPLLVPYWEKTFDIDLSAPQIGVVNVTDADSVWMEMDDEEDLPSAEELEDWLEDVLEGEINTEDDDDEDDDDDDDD

Assays:
[1] = target: CSQ1DA1 (rabbit CSQ1 with one C-terminal acidic residue changed to alanine) (rabbit) (UniProt P07221); assay: co-IP; purified CSQ1 construct coupled to anti-CSQ1/protein A/G agarose (Pierce kit), then exposed to purified trisk95 or junctin; 20 mM MOPS, 150 mM NaCl, 1 mM CaCl2, pH 7.4; CSQ1 to partner 2:1 by weight; Western blot; both purified
[2] = target: CSQ1DA2 (rabbit CSQ1 with two alternate C-terminal acidic residues changed to alanine) (rabbit) (UniProt P07221); assay: as above

binding [1]: binds
binding [2]: binds
B1: skeletal triadin 95 kDa (trisk95) (protein, UniProt Q28820 1-706)
chain: MTEITAEGNASTTTTVIDSKNGSVPKSPGKVLKRTVTEDLVTTFSSPAAWLLVIALIITWSAVAVVMFDLVDYKNFSASSIAKMGSDPLKLVHDAVEETTDWIYGFFSLLSDIISSDGDEEDDEGDEDTAKGEIEEPPLKRKDIHKEKIEKQEKPERKIPTKVVHKEKEKEKEKVKEKEKPEKKATHKEKLEKKEKPETKTVTKEEKKARTKEKIEEKTKKEVKGVKQEKVKQTVAKAKEVQKTPKPKEKESKETAAVSKQEQKDQYAFCRYMIDIFVHGDLKPGQSPAIPPPSPTEQASRPTPALPTPEEKEGEKKKAEKKVTTETKKKAEKEDAKKKSEKETDIDMKKKEPGKSPDTKPGTVKVTTQAATKKDEKKEDSKKAKKPAEEQPKGKKQEKKEKHEEPAKSTKKEHAAPSEKQAKAKIERKEEVSAASTKKAVPAKKEEKTTKTVEQETRKEKPGKISSVLKDKELTKEKEVKVPASLKEKGSETKKDEKTSKPEPQIKKEEKPGKEVKPKPPQPQIKKEEKPEQDIMKPEKTALHGKPEEKVLKQVKAVTTEKHVKPKPAKKAEHQEKEPPSIKTDKPKSTSKGMPEVTESGKKKIEKSEKEIKVPARRESHQLQNVTKAEKPARGSKEGFEDVPASKKAKEEAEEVSSTKKQKSPISFFQCVYLDGYNGYGFQFPVTPAQYPGESSGKPNSPGPKQ
